Source: article PMC3897609, “Heparanase Interacts with Resistin and Augments Its Activity” (PLoS ONE, 2014)
No constants are given. Whether binding was seen depends on the method and setting. In cells and extracts the contact can be indirect. These calls come from enrichment with a bait or labelling near it, and not all partners need be listed. Where a sequence is shown, tags or fusion partners need not be part of it.

Chains of the proteins cited; added tags and fusions are not shown. Residues count along the entry.
UniProt Q9HD89, residues 19-108: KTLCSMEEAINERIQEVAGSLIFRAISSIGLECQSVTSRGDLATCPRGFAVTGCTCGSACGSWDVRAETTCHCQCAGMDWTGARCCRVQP

Target: T1, cMyc-tagged 65-kDa latent heparanase (human, UniProt Q9Y251 36-543)
T1 construct: heparanase, human, 65-kDa latent (unprocessed) form; also called cMyc-latent heparanase; latent cMyc-heparanase; source: medium conditioned by heparanase infected CHO cells, purified (heparin column)
T1 sequence (looked up): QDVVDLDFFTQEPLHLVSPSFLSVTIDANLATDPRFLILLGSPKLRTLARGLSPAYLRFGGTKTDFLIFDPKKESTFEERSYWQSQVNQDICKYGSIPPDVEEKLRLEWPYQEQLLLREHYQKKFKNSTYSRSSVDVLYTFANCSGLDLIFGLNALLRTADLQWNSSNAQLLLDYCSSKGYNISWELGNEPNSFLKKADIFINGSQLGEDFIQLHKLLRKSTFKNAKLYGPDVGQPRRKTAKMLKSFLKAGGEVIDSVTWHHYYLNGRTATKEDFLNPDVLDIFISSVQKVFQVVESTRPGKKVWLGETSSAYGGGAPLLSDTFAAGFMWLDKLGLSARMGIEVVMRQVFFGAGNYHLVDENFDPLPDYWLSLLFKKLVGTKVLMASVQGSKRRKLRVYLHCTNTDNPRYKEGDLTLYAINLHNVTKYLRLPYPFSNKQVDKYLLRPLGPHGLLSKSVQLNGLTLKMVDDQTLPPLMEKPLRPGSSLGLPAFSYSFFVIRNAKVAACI
Experiment: affinity purification with mass spectrometry; cMyc-latent heparanase covalently immobilised on Affigel-10 Sepharose beads; 500 fold concentrated crude human urinary proteins passed at 4°C; wash phosphate buffer pH 7.4 with 0.65 M NaCl; elution 25 mM citric acid pH 2.2; bands from non-reducing SDS-PAGE analysed by LC-MS/MS; only the target purified

binding: binds
Substance: urinary resistin (RETN) (from UniProt Q9HD89 19-108)
